Experimental data reported in PubChem BioAssay AID2718 (Broad Institute, 2010).
Out of some 320,000 compounds screened, about 480 (0.15%) were called active. The shares of active, inactive and inconclusive entries below differ from those in the screen. Cut-off read from the data, not from the text of the source: active = inhibition above about 26% (passing the limit was not always enough); inconclusive = no clear call, values can overlap the other calls.

Chains of the proteins cited; added tags and fusions are not shown.
UniProt O15379, whole entry, looked up: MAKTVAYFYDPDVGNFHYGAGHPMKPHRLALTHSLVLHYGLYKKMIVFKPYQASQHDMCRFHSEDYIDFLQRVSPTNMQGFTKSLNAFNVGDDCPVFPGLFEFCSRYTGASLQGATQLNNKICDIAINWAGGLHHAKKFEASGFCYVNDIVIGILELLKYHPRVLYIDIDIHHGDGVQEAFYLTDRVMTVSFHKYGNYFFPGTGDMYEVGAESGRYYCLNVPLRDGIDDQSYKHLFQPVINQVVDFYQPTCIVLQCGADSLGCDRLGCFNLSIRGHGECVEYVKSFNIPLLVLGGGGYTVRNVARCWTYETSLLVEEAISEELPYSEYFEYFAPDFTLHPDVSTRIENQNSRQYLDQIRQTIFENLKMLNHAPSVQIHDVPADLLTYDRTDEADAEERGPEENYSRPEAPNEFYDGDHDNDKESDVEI

Target: Histone deacetylase 3 (Homo sapiens) (UniProt O15379)
Assay: HDAC3 deacetylase inhibitors, primary screen, biochemical, fluorescence, cell-free homogeneous (AID 2718)
Settings: recombinant HDAC3, fluorogenic peptide/trypsin coupled, at 8.3 µM, active compounds read high

Question: For `COc1ccc(SC[C@H](C)CN2CC[C@H](C(C)(C)C)CCC2=O)cc1`, which inhibition is on record?
Answer: inconclusive: 25%

Question: With `COc1ccc(/C=N/NC(=O)c2nn(-c3ccc(Cl)cc3)c(=O)c3c(N)scc23)cc1` as the compound, how does the inhibition read?
Answer: inactive: 5.67%

Question: For `CC(=O)NC(c1ccc(Cl)cc1)c1c(O)ccc2ccc(O)cc12` (stereo not given), which inhibition is on record?
Answer: inconclusive: 10.6%

Question: How did the inhibition turn out when `Cc1cc(S(=O)(=O)NCCc2ccccc2)c(C)s1` was run?
Answer: inconclusive: 19.7%

Question: With `Cc1nnc(SCC(=O)Nc2ccc(S(N)(=O)=O)cc2)n(N)c1=O` as the compound, how does the inhibition read?
Answer: inactive: -2.24%

Question: With `COc1ccccc1-c1cc(C(F)(F)F)nc(S(=O)(=O)CCCC(=O)NCc2ccc(F)cc2)n1` as the compound, how does the inhibition read?
Answer: inactive: -6.94%

Question: How did the inhibition turn out when `O=C(CN1C(=O)c2cccnc2Oc2ccc(Cl)cc21)NCCC1=CCCCC1` was run?
Answer: inconclusive: 12%

Question: Which inhibition does the source give for `CCOc1cc(/C=C2/NC(=O)N(CC(=O)Nc3cccc(C)c3)C2=O)ccc1O` here?
Answer: inconclusive: 22%

Question: Which inhibition does the source give for `COc1cccc(-c2nc3ccccc3c(=O)o2)c1` here?
Answer: inconclusive: 17.8%

Question: With `COc1ccc(Br)cc1/C=N/Nc1cccc(C(=O)O)c1` as the compound, how does the inhibition read?
Answer: inactive: -0.141%

Question: `Cc1sc2ncn(CC(=O)NCC(=O)N(C)C3CCCCC3)c(=O)c2c1C` was tested. Which inhibition did it give?
Answer: inconclusive: 17.8%

Question: Which inhibition does the source give for `COCCNc1nc(-c2ccc(OC)cc2)c(-c2ccc(OC)cc2)s1` here?
Answer: inactive: 11.4%

Question: How did the inhibition turn out when `CCOC(=O)CSC(=S)NC(=O)c1ccc(OC)cc1` was run?
Answer: active: 78.7%

Question: `O=C(NCC(c1cccs1)N1CCOCC1)c1cc2ccccc2o1` (stereo not given) was tested. Which inhibition did it give?
Answer: inconclusive: 15.7%

Question: `Cc1cc(C)c(NC(=O)CSc2nnc(-c3ccncc3)n2Cc2ccco2)c(Cl)c1` was tested. Which inhibition did it give?
Answer: inactive: -1.95%

Question: Which inhibition does the source give for `COc1ccccc1NC(=O)NNC(=O)c1ccc2ccccc2c1O` here?
Answer: inactive: 3.18%

Question: How did the inhibition turn out when `C/C(=N\NC(=O)CCCNc1cccc(C)c1)c1ccncc1` was run?
Answer: inactive: -0.774%

Question: `Cc1ccc([N+](=O)[O-])cc1NC(=O)CSc1n[nH]c(-c2cccnc2)n1` was tested. Which inhibition did it give?
Answer: inconclusive: 15.9%

Question: With `COc1cc(C(=O)Nc2cccc(C)c2C)c(Br)c(OC)c1OC` as the compound, how does the inhibition read?
Answer: inconclusive: 17.2%

Question: With `CCOC(=O)C1(CCCc2ccccc2)CCN(C(=O)c2cncs2)CC1` as the compound, how does the inhibition read?
Answer: inconclusive: 16.7%

Question: `CC1CCCN(C(=O)c2cccc(S(=O)(=O)N3CCCc4ccccc43)c2)C1` (stereo not given) was tested. Which inhibition did it give?
Answer: inconclusive: 21.4%

Question: `Cc1cc(-c2ccc(Cl)cc2)n2nc(N)nc2n1` was tested. Which inhibition did it give?
Answer: inactive: -28%

Question: `Clc1ccc(CONc2ncnc3nonc23)c(Cl)c1` was tested. Which inhibition did it give?
Answer: inactive: 9.12%

Question: For `NS(=O)(=O)c1ccc(NC(=O)CSc2nc3ccccc3nc2N2CCOCC2)cc1`, which inhibition is on record?
Answer: inactive: 3.15%

Question: For `CCN(CC)CCNC(=O)c1ccc(NC(=O)COc2ccc3c(c2)CCC3)cc1`, which inhibition is on record?
Answer: inconclusive: 25.9%

Question: With `COc1ccc(N2CC(NC(=O)NCC(C)C)CC2=O)cc1` (stereo not given) as the compound, how does the inhibition read?
Answer: inconclusive: 20.5%

Question: Which inhibition does the source give for `N#CCCNC(=O)Cn1c(COc2ccc(Cl)cc2)nc2ccccc21` here?
Answer: inconclusive: 13.2%

Question: For `COc1ccc(CC(=O)NCc2cn3ccsc3n2)cc1`, which inhibition is on record?
Answer: inactive: 0.444%

Question: `N#CCC(CNc1ncc(C(F)(F)F)cc1Cl)OC(=O)c1ccc(Cl)cc1` (stereo not given) was tested. Which inhibition did it give?
Answer: inconclusive: 19.7%

Question: With `O=C1/C(=C\c2ccc(Br)o2)Cc2ccccc21` as the compound, how does the inhibition read?
Answer: inconclusive: 16%

Question: With `O=C(Nc1ccnn1C1CCN(CC(O)CO)CC1)C1CCCC1` (stereo not given) as the compound, how does the inhibition read?
Answer: inconclusive: 12%

Question: `COCCn1c(-c2ccc(OC)cc2)cnc1SCC(=O)Nc1cc(C)on1` was tested. Which inhibition did it give?
Answer: inconclusive: 32.6%

Question: With `CCO[C@H]1OC(C(=O)NCc2nc3ccccc3[nH]2)=C[C@@H](c2ccc3c(c2)OCO3)[C@@H]1CCCO` as the compound, how does the inhibition read?
Answer: inconclusive: 6.66%

Question: With `CC(C)Nc1ccc(C(CC(N)=O)NC(=O)Cc2cccc3ccccc23)cc1[N+](=O)[O-]` (stereo not given) as the compound, how does the inhibition read?
Answer: inconclusive: 16.2%

Question: Which inhibition does the source give for `COc1cc(NC(=O)C/C(C)=N/NC(=O)c2cccs2)c(OC)cc1Cl` here?
Answer: inconclusive: 26.8%

Question: Which inhibition does the source give for `CCC[n+]1c(C)sc2c3c(ccc21)CCCC3` here?
Answer: inactive: -1.27%

Question: Which inhibition does the source give for `C=CCNC(=S)Nc1sc2c(c1C#N)CCCC2` here?
Answer: inconclusive: 30.5%

Question: For `O=C(O)c1ccccc1NS(=O)(=O)c1cccc(-n2sc3ccccc3c2=O)c1`, which inhibition is on record?
Answer: active: 53.6%

Question: With `Cc1ccc(NC(=O)Nn2cnnc2)cc1` as the compound, how does the inhibition read?
Answer: inactive: 5.12%

Question: For `CCN(CC(=O)Nc1ccc(NC(C)=O)cc1)C(=O)CCCc1c[nH]c2ccccc12`, which inhibition is on record?
Answer: inactive: 5.23%

Question: With `COc1cc2c(cc1OC)C(c1cc3cccc(C)c3[nH]c1=O)N(C(=O)c1ccco1)CC2` (stereo not given) as the compound, how does the inhibition read?
Answer: inconclusive: 22.5%

Question: `CC(=O)Nc1ccc(S(=O)(=O)NCc2ccc(C(=O)NCc3ccc4c(c3)OCO4)cc2)cc1` was tested. Which inhibition did it give?
Answer: inconclusive: 19.3%

Question: `COc1cc(/C=N/Nc2nc(C)cc(C)n2)cc(OC)c1OC` was tested. Which inhibition did it give?
Answer: inactive: 3.16%

Question: For `CCOc1cc(NC(=S)Nc2ccc(Cl)cc2)c(OCC)cc1NC(C)=O`, which inhibition is on record?
Answer: inactive: 2.89%

Question: For `CCCCN(C(=O)c1cc2ccccc2o1)c1c(N)n(CCC)c(=O)[nH]c1=O`, which inhibition is on record?
Answer: inconclusive: 15.9%
